Results are given in words; binding and its absence hold for the method and conditions named. In cells and extracts the contact can be indirect. Binding calls can cover weak binding; strength is not graded here.
Columns and labels:
Test in all cases: co-IP; HEK293T transfected with tagged plasmids, with or without 1 μM TSA (6, 12 or 24 h); RIPA lysate; immunoprecipitation with Flag or HA antibody, western blot with Myc antibody
[1] = molecular target: Flag-MAL-R207A (human) (human) (UniProt P58753)
[2] = molecular target: Flag-TRAM (full-length) (UniProt Q86XR7)
[3] = molecular target: Flag-MAL (human, full-length) (human) (UniProt P58753)
[4] = molecular target: HA-MyD88 (human) (human) (UniProt Q99836)
[5] = molecular target: HA-MyD88-K261A (human) (human) (UniProt Q99836)
[6] = molecular target: Flag-TRIF (full-length) (UniProt Q8IUC6)
[7] = molecular target: Flag-MAL-E211A (human) (human) (UniProt P58753)

By UniProt entry, the sequences of proteins in these tests, tags left out. Where a name states a change or a piece, a line headed by the entry shows the natural chain unless it says otherwise.
UniProt P58753: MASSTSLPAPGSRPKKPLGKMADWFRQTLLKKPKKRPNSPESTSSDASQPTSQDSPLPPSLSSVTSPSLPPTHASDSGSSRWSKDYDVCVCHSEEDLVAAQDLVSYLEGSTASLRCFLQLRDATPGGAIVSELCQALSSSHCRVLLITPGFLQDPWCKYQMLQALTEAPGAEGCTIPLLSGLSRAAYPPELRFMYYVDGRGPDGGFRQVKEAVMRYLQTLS
UniProt Q86XR7: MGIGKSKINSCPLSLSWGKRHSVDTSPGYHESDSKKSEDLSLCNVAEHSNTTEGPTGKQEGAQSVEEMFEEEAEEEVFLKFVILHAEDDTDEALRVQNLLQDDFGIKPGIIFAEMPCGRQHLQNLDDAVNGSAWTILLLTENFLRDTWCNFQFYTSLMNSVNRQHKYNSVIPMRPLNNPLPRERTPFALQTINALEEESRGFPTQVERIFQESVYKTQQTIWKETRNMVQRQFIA
UniProt Q99836: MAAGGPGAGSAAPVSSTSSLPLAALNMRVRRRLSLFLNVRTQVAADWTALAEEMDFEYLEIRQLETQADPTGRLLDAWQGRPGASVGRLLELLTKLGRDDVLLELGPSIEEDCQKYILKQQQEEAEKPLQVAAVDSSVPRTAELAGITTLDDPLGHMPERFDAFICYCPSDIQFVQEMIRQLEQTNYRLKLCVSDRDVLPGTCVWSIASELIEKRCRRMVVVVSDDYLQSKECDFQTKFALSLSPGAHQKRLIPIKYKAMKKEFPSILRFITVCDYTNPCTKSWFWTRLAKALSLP
UniProt Q8IUC6: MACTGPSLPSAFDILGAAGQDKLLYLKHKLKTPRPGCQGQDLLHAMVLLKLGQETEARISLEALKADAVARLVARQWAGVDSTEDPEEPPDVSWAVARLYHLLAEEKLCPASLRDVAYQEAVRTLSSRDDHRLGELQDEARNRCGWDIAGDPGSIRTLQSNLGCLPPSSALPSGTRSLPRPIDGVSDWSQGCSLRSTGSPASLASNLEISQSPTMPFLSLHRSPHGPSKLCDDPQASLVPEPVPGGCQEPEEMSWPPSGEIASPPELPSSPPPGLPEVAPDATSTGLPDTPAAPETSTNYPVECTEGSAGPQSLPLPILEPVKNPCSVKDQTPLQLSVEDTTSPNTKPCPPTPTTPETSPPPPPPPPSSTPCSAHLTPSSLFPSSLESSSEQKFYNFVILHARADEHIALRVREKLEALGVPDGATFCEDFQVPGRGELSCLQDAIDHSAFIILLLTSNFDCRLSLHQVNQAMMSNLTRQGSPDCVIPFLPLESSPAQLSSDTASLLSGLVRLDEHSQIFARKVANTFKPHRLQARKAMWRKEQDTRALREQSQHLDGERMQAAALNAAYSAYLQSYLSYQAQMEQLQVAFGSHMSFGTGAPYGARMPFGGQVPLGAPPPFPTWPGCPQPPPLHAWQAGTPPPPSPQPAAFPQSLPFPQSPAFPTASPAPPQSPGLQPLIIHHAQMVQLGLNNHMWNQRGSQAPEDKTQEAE
UniProt O00206: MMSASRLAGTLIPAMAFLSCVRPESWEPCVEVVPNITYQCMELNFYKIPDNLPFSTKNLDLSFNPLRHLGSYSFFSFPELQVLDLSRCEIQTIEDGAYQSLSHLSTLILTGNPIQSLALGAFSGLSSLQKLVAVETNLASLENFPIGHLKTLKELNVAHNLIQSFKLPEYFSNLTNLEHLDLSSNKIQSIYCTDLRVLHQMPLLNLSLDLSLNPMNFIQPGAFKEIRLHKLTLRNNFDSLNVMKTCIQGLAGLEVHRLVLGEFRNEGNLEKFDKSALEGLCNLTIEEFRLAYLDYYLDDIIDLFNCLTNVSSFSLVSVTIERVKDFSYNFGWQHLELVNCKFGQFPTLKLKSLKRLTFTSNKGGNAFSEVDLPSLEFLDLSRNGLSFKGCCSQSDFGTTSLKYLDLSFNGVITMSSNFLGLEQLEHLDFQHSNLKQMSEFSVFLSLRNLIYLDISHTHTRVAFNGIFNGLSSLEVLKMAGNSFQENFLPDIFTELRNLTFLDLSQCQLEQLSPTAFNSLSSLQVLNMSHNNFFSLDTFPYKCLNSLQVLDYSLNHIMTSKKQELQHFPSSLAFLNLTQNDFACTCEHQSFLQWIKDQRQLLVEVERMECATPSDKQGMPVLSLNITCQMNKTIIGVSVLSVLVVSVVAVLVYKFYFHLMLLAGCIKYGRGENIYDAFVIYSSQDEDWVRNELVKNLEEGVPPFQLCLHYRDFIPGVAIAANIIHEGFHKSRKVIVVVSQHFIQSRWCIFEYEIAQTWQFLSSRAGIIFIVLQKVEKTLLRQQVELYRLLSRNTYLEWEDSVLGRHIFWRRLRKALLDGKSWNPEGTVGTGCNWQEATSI

Measured: binding

Myc-TLR4-TIR (human TLR4 cytoplasmic TIR domain) (from UniProt O00206) (domain or fragment)
binds: all assays above

From PMC11535217
